No constants are given. Whether binding was seen depends on the method and setting. A result given as binding can be weak or reduced; the word gives no strength.
Target: cynomolgus monkey (Macaca fascicularis) DR5 (cynomolgus monkey (Macaca fascicularis))
Experiment: titration with fluorescence readout (y axis: Log MFI); the text does not describe the assay format

Binder | binding
DR5 mAb 1 (antibody, V domains shown) VH: EVKFLESGGGLVQPGGSLKLSCVASGFDFSRYWMSWVRQAPGKGLEWIGEINPDSNTINYTPSLKDKFIISRDNAKNTLYLQMTKVRSEDTALYYCTRRAYYGNPAWFAYWGQGTLVTVSS VL: DIVLTQSPASLAVSLGQRATISCRASKSVSSSGYSYMHWYQQKPGQPPKVLIFLSSNLDSGVPARFSGSGSGTDFTLNIHPVEDGDAATYYCQHSRDLPPTFGGGTKLEIK | binds
DR5 mAb 2 (antibody, V domains shown) VH: KVQLQQSGAELVKPGASVKLSCKASGYTFTEYILHWVKQKSGQGLEWIGWFYPGNNNIKYNEKFKDKATLTADKSSSTVYMELSRLTSEDSAVYFCARHEQGPGYFDYWGQGTTLTVSS VL: DIVMTQSHKFMSTSVGDRVSITCKASQDVNTAVAWYQQKPGQSPKLLIYWASTRHTGVPDRFTGSGSGTDYTLTIKSVQAEDLTLYYCQQHYITPWTFGGGTKLEIK | binds

Reference: US20170204176A1
